According to PubChem BioAssay (Tox21):
Inconclusive means that the source gave no clear call. Such entries were picked first, then a sample of the others. Where a call stands in place of a potency, no number is given. For some of these results: Where the call is inconclusive, the potency comes from a doubtful curve fit. Calls of active or inactive are those of the source. Calls come from the whole dose curve.

The chains behind the UniProt entries cited, without tags or fusion partners.
UniProt P14416, whole entry, looked up: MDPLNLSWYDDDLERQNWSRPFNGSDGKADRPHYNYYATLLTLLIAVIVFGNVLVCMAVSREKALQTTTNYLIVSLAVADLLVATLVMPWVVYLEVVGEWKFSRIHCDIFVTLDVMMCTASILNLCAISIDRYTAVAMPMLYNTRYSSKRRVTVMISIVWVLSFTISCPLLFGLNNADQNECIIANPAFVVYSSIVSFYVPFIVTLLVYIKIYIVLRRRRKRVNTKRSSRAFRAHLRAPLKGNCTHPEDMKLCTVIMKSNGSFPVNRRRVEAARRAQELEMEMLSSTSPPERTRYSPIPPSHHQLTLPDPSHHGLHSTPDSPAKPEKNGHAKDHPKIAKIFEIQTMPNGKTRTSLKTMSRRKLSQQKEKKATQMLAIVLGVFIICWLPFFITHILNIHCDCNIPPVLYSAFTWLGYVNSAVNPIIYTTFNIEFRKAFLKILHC

How the values were obtained:
[1] = biological target: Beta-2 adrenergic receptor (Homo sapiens) (UniProt P07550); assay: Adrenergic beta2 receptor (ADRB2) small molecule agonists, cell-based qHTS assay (AID 1963593); conditions: CHO-ADRB2 cells, cAMP HTRF, 30 min; activation: at 92.4 µM (top of the series) unless noted;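 note: CHO cells stably overexpressing human ADRB2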
In short: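 CHO cells stably over-expressing ADRB2 were plated overnight at 37C, then dosed with compounds plus a stimulation mix containing 100uM IBMX and 25uM Ro-20-1724 for 0.5hr at room temperature. cAMP was measured by HTRF competition, 1hr.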

[2] = biological target: D(2) dopamine receptor (Homo sapiens) (UniProt P14416); assay: Dopamine D2 receptor (DRD2) small molecule agonists, cell-based qHTS assay (AID 1963594); conditions: HEK293-DRD2 cAMP HTRF, agonist mode, 30 min; activation: at 92.4 µM (top of the series) unless noted; note: nearly all actives have a fitted effect of over 35% in size; note: potency is the fitted concentration of half-maximal effect
In short: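 HEK293 cells stably expressing DRD2 were cultured 24 h at 37 C, then given Ro20-1724 (0.1 mM final) and compounds for 10 min at room temperature. NKH477 (200nM) was then added for 30 min. cAMP was read by HTRF.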

SMILES | Potency [1] | Potency [2] | activation [1] | activation [2]
O=S(=O)(O)c1ccccc1 | inactive | inactive | – | –
Nc1ccn([C@H]2CS[C@@H](CO)O2)c(=O)n1 | inactive | inactive | – | –
O=C(O)c1cccc(C(=O)O)n1 | – | – | inconclusive: -62% | inconclusive: -0.313%
CC(C)CO | – | inactive | inconclusive: -2.52% | –
CC(CC=O)CCCC(C)(C)O (stereo unspecified) | inactive | – | – | inconclusive: 28%
CCCCCCCC1CCC(=O)O1 (stereo unspecified) | inactive | inconclusive: 13.7 µM [rising, partial curve, poor fit] | – | –
CCOC(=O)c1cc(=O)c2c(OCC(COc3cccc4oc(C(=O)OCC)cc(=O)c34)OC(=O)[C@@H](N)CCCCN)cccc2o1 | inactive | – | – | inconclusive: -11.9% [at 42.5 µM]
N[C@@H](Cc1ccc(O)cc1)C(=O)O | – | inconclusive: 1.82 µM | inactive: 15.9% [at 8.39 µM] | –
